Results are given in words; binding and its absence hold for the method and conditions named. Some binding calls cover weakened binding; strength is not graded here.

By UniProt entry, the sequences of proteins in these tests, tags left out. Where a name states a change or a piece, a line headed by the entry shows the natural chain unless it says otherwise. Residues count along the entry.
UniProt P11362, residues 22-376: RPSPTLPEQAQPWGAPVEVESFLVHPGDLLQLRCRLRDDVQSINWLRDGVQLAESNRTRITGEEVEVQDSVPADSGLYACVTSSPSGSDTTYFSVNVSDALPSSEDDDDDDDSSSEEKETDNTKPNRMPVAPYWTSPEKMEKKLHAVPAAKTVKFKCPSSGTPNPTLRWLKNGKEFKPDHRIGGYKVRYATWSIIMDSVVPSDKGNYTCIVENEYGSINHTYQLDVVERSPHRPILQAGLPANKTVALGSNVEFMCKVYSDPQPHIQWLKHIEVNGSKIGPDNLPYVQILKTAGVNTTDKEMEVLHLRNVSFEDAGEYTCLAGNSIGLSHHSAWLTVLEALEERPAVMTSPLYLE
UniProt P22607, residues 23-375: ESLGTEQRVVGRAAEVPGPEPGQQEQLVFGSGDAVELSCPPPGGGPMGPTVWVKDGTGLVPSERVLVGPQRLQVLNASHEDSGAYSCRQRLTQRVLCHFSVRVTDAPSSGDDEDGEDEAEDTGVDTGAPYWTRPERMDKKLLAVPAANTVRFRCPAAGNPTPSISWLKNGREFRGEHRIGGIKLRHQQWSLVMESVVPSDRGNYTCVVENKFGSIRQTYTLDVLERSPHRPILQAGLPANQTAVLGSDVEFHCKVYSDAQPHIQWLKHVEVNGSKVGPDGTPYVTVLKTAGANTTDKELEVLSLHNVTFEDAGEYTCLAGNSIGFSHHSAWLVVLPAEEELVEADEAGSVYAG

The target of experiment [1] is FGFR1 Protein, Human, Recombinant (His Tag) (Sino Biological, 10616-H08H) (human) (UniProt P11362). Kind of experiment: SPR, peptide immobilized, 1 umol/L FGFR. (In general: In SPR one partner is held on a chip, and binding of the other changes the refractive index at the surface.)
In experiment [2] the target is FGFR3 Protein, Human, Recombinant (ECD, His Tag) (Sino Biological, 16044-H08H) (human) (UniProt P22607). The experiment is described as follows: SPR, peptide immobilized, 1 umol/L FGFR.

B1: SEQ ID NO: 382 (peptide)
peptide: HCSYERLQFHGHEAPFRVKVKKK
modifications: thioether ring (C)-(K(acetyl))
Consider B1, for which the binding entry in experiment [1] and in experiment [2] was “binds” each time.
